Assay in all cases: Table 1, target and cross-reactivity (immunofluorescence, Figure 1)
The target of assay [1] is Xenopus Nup35 RRM domain (Xenopus).
The target in assay [2] is Xenopus Nup214·Nup88·Nup62 coiled coil trimer (Xenopus).
The target of a further assay is Xenopus Nup358 (Xenopus).

Results are given in words; binding and its absence hold for the method and conditions named. Binding can be weak; no strength is given.

B1: xhNup35-Nb1t (VHH)
VHH: QVQLVESGGGLVQAGGSLRLSCVGTGNISSAYTMAWYRQAAGKEREVVAGILNGGSTHYADSVKGRFTISRDNAKNTVYLQMNSLQPEDTGVYCCHVVIESTRFVYDHYWGQGTRVTVSS
Regarding B1, the binding result in assay [1] is “binds”.

B2: Re3E01 (VHH)
VHH: QVQLVESGGGLVQPGGSLRLSCAASGFTFTDYLMAWYRQAPGNQRQLVAYITSDGSTVYASSARGRFTISRDNAKNTVTLQMNSLLLDDTAVYYCSAKSGLKDYYGQGTQVTVSS
For B2, the binding entry in assay [2] is “binds”.

B3: xhNup358-Nb2t (VHH)
VHH: QVQLVESGGGLVQPGGSLRLSCAASGRPLSDYAMGWFRQAPGKEREFVAAISWKGGETFYAGSVKGRFTISRDDAKNSLYLQMNNLKLEDTAEYSCAAVLGSPHYSGTHYYPAEYDYWGQGTQVTVSS
Turning to B3, the binding result with Xenopus Nup358 (Xenopus) is “binds”.

(Values after patent EP4477666A1.)
